From PubChem BioAssay AID493014 (National Center for Advancing Translational Sciences (NCATS), 2011)
This is one part of the list. Shown are side measurements of this screen, not its main read-out; they come without a call. The list favours compounds with an active or inconclusive main result. Potencies come from curve fits of mixed quality, noted in brackets.

Assay: qHTS Assay to Find Inhibitors of Chronic Active B-Cell Receptor Signaling
Conditions: ABC-DLBCL IkBa-CBG/CBR reporter, luminescence ratio (green luciferase fused to IkBa over red control in TMD8 lymphoma cells), 4 h
Procedure, shortened: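 Doxycycline induced both beetle luciferases in TMD8 lymphoma cells; IKK-driven degradation limits the IkappaBalpha-fused green signal, while red luminescence normalises for cell number and nonspecific effects. Compounds tested up to 46 uM, 4 hrs.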

[1] = measured here: CBR red luminescence, cell number

SMILES	AC50 [1]	AC50 (measured here: IkBa-CBG green luminescence)
CCn1c(COc2ccc3c(c2)OCO3)nnc1SCC(=O)c1ccccc1	0.058 µM [falling, full curve, poor fit]	–
COc1ccc2cnn(-c3ccccc3C)c(=O)c2c1OC	29.1 µM [falling, single point]	–
CC(C)Sc1ccc([N+](=O)[O-])cc1C(=O)Nc1ccncc1	15.8 µM [rising, partial curve]	–
COCCCNC(=O)c1cc(Sc2nnc(C)s2)nc2ccccc12	31.6 µM [rising, single point]	–
CCCN(CC1CC1)C(=O)CSc1nnc(-c2cc(-c3cccs3)nc3ccccc23)o1	1.64 µM [rising, partial curve, poor fit]	–
CCOc1cc(/C=N/Nc2nc3ccccc3[nH]2)cc(Br)c1OCC(=O)N(C)C	14.1 µM [falling, partial curve, poor fit]	–
COc1cccc(NC(=O)CN(C)C(=O)CNC(=O)c2sc3ccccc3c2Cl)c1	29.1 µM [falling, single point]	–
COc1ccc(Cl)cc1N/C(N)=N/c1nc(C)cc(C)n1	2.82 µM [rising, single point]	–
Cc1ccc2c(c1)C1CN(C)CCC1N2Sc1ccccc1[N+](=O)[O-] (stereo not drawn)	14.1 µM [falling, partial curve, poor fit]	–
COc1ccc2cc(C(=O)OC(C)C)sc(=O)c2c1OC	4.47 µM [rising, partial curve]	–
Cc1c(NC(=O)CCCCCN2C(=O)C3C4C=CC(C4)C3C2=O)c(=O)n(-c2ccccc2)n1C (stereo not drawn)	18.4 µM [rising, single point]	–
Cc1oc(-c2ccc(F)cc2)nc1CN1CCCC(C(=O)N2CCOCC2)C1 (stereo not drawn)	35.5 µM [rising, partial curve, poor fit]	–
COC(=O)c1cc(COc2ccc3oc(C)c(C(=O)OC)c3c2)c(C)o1	20.6 µM [falling, single point]	16.4 µM [rising, partial curve, poor fit]
Cc1sc2ncn(CC(=O)NCCN(C)C)c(=O)c2c1S(=O)(=O)N1CCC(C)CC1	0.316 µM [falling, full curve]	–
COc1ccccc1NC(=O)C(C)OC(=O)CN1C(=O)C2CC=CCC2C1=O (stereo not drawn)	6.51 µM [rising, partial curve, poor fit]	–
CCOC(=O)Cc1nnc2c(Nc3ccc(Cl)cc3)nc3nonc3n12	29.1 µM [falling, single point]	–

Random excerpt: 2 records from the list, in no set order.
SMILES	AC50 [1]	AC50 (measured here: IkBa-CBG green luminescence)
CCCN(CC1CC1)C(=O)CSc1nnc(-c2cc(-c3cccs3)nc3ccccc23)o1	1.64 µM [rising, partial curve, poor fit]	–
CC(C)Sc1ccc([N+](=O)[O-])cc1C(=O)Nc1ccncc1	15.8 µM [rising, partial curve]	–

Further records follow.

SMILES	AC50 [1]	AC50 (measured here: IkBa-CBG green luminescence)
COC(=O)c1ccccc1S(=O)(=O)N1CCC(C(=O)OCC(=O)c2ccccc2OC)CC1	14.6 µM [rising, single point]	–
CCOc1ccc(NC(=O)c2cccc3ccccc23)cc1	2.51 µM [falling, partial curve, poor fit]	–
O=S(=O)(c1ccc(Br)cc1)n1c(Cc2ccccc2)nc2ccccc21	5.17 µM [falling, full curve]	–
CCOC(=O)c1c(C)[nH]c(C)c1C(=O)COC(=O)c1cc(OC)c(OC)cc1OC	14.1 µM [rising, partial curve, poor fit]	–
COc1cccc(OC)c1C(=O)NC(=S)Nc1ccc2c(c1)Cc1ccccc1-2	29.1 µM [falling, single point]	–
CCOc1cc(/C=C2/NC(=O)NC2=O)cc([N+](=O)[O-])c1O	17.8 µM [rising, single point]	–
CCN1CCN(C(=O)c2ccc3c(c2)S(=O)(=O)c2ccccc2C3=O)CC1	11.2 µM [rising, partial curve, poor fit]	–
COc1ccc(C2SCC(=O)N2CCc2ccc(OC)c(OC)c2)cc1 (stereo not drawn)	3.16 µM [rising, single point]	–
CCOc1ccc(OCCC(=O)Nc2ccc(F)cc2C)cc1	15.8 µM [rising, single point]	–
COc1ccc(NC(=O)c2ccc(-n3c(C)ccc3C)cc2)c(OC)c1	35.5 µM [falling, single point]	–
O=c1oc(-c2ccc(Br)o2)nc2ccccc12	1.3 µM [falling, full curve]	–
CN(C)S(=O)(=O)N(CC(=O)Nc1cccc(F)c1)c1ccccc1	32.6 µM [falling, single point]	–
COc1ccc(-n2c(=S)[nH]c3cc(C(=O)Nc4ccc(C)c(F)c4)ccc3c2=O)c(OC)c1	1.41 µM [falling, full curve]	–
COc1ccc(N2CCN(C(=O)c3ccc(NS(=O)(=O)c4cccs4)cc3)CC2)cc1	0.224 µM [rising, full curve, poor fit]	–
COc1ccc(NC(=O)CSc2nnc3ccc(-c4cccnc4)nn23)cc1	3.66 µM [rising, full curve, poor fit]	–
Nc1cc(=O)nc(SCC(=O)Nc2cccc3ccccc23)n1CCc1ccccc1	2.24 µM [falling, full curve, poor fit]	–
